These are yes or no findings as the source states them, for the method shown. In cells and extracts the contact can be indirect. Some binding calls cover weakened binding; strength is not graded here. Sequences can lack the tags named with a protein.
Legend:
[1] = target: T1, Swi4-VF[2] fusion protein (S. cerevisiae) (UniProt P25302); test: split reporter; yeast enhanced monomeric Venus (yEmVenus) protein-fragment complementation assay (PCA); VF[1] and VF[2] fusions co-expressed from p413ADHcen and p415ADHcen in wild-type MatA (BY4741) yeast; fluorescence microscopy of living cells at room temperature with image analysis (threshold 225 against autofluorescence of mock cells); the three Cdc28 PCAs with Swi4, Swi6 and Mbp1 were also read in 30 deletion strains and in elm1T551A
T1 sequence: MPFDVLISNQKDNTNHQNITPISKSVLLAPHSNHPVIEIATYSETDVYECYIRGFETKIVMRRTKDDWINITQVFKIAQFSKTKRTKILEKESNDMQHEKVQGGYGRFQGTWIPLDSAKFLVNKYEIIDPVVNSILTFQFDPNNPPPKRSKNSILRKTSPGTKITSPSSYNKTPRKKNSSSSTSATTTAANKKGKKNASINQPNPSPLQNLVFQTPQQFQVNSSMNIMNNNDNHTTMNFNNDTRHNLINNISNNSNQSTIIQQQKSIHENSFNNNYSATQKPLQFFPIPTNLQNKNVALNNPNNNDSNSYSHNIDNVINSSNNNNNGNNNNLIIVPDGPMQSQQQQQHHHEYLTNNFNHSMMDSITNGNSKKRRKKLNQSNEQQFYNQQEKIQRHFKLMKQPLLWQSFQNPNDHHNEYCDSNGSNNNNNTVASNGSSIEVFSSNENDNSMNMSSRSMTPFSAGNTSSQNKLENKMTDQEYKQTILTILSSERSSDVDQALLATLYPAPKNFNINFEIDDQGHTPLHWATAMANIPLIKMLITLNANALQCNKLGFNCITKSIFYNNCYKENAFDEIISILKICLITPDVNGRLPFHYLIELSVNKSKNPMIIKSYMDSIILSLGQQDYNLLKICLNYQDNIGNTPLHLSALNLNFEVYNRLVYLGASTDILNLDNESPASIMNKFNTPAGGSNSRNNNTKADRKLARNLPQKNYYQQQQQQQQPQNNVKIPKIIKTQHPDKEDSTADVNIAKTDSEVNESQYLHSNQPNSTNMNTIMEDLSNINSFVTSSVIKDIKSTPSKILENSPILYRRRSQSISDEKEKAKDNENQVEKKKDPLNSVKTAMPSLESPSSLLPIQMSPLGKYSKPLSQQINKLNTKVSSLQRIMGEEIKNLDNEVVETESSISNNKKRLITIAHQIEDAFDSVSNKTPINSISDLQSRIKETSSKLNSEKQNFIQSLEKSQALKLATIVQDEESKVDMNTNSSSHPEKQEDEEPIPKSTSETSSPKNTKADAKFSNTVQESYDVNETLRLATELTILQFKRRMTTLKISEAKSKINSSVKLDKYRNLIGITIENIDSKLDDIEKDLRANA

Sequences of proteins named here, by UniProt entry; tags and fusion partners are left off.
UniProt P00546: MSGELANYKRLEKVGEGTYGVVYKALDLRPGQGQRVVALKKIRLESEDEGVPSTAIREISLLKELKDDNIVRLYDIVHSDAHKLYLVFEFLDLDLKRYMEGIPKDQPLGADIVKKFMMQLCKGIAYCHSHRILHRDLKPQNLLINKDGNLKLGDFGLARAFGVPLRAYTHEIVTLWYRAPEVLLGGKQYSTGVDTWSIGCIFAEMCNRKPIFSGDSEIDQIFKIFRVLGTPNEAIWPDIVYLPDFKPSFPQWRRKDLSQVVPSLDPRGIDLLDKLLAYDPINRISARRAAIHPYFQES

[2] = target: T2, Mbp1 yEmVenus PCA fusion protein (S. cerevisiae) (UniProt P39678); test: as above
T2 sequence: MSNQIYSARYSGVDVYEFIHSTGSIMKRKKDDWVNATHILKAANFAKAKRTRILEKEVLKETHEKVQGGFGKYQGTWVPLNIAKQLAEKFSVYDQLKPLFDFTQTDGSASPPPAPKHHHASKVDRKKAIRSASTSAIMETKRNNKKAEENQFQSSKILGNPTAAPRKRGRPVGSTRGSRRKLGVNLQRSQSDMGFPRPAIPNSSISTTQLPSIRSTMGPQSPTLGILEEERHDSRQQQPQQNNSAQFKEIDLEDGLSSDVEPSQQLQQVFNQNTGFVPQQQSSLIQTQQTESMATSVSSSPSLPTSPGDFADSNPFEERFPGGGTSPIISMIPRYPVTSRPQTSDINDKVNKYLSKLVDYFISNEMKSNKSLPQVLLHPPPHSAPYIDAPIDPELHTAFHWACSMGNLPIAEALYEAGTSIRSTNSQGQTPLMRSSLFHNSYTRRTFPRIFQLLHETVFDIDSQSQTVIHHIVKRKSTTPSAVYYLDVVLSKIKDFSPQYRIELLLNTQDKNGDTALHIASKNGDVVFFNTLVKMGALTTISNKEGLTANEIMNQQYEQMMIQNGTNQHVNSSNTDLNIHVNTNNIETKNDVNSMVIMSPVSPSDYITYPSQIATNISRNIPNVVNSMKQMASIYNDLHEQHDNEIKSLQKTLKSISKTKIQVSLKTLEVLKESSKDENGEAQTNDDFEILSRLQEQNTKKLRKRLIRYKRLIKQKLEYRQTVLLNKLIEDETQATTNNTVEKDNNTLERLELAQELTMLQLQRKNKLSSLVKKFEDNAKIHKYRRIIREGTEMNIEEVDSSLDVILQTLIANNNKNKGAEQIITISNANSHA

[3] = target: T1, Swi4-VF[2] fusion protein (S. cerevisiae); test: split reporter; yEmVenus PCA as above, read in the Δelm1 deletion strain (BY4741); both fusion proteins detectable by Western blot

Cdc28-VF[1] fusion protein (from UniProt P00546 1-298) (enzyme)
binding [1]: binds | binding [2]: binds | binding [3]: no binding (condition: in the Δelm1 deletion strain)

Source: publication PMC2198942
